These are yes or no findings as the source states them, for the method shown. Some entries that bind do so weakly or less than the wild type. Blank lines part the entries; values can stand above or below the binder they belong to.
Experiments:
[1] = target: T1, CD47 on the surface of CD47+ cells (human, UniProt Q08722 19-323); test: binding on human platelets, FIG. 8B
T1 construct: whole, on cells; also called CD47+ cell lines; CD47 on Raji cells, HCT-15 cells, human red blood cells (RBCs), human platelets

The chains behind the UniProt entries cited, without tags or fusion partners. Residues count along the entry.
UniProt Q08722, residues 19-323: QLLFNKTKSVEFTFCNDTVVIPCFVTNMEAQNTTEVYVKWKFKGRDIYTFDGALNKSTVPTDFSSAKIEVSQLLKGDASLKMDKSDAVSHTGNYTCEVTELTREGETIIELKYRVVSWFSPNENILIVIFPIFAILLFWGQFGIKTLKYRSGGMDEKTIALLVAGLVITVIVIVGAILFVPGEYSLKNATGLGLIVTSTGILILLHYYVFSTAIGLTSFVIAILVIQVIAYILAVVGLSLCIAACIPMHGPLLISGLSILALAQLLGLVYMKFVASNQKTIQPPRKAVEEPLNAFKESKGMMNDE

[2] = target: T1, CD47 on the surface of CD47+ cells; test: flow cytometry on human red blood cells, FIG. 7B
[3] = target: CD47 on the surface of CD47+ cells (human) (UniProt Q08722); test: binding on human platelets, FIG. 8B
[4] = target: CD47 on the surface of CD47+ cells (human) (UniProt Q08722); test: flow cytometry on human red blood cells, FIG. 7B
[5] = target: T1, CD47 on the surface of CD47+ cells; test: binding on human platelets, FIG. 8A
[6] = target: T1, CD47 on the surface of CD47+ cells; test: flow cytometry on human red blood cells, FIG. 7A
[7] = target: CD47 on the surface of CD47+ cells (human) (UniProt Q08722); test: binding on human platelets, FIG. 8A
[8] = target: CD47 on the surface of CD47+ cells (human) (UniProt Q08722); test: flow cytometry on human red blood cells, FIG. 7A

binding [3]: binds
binding [4]: binds
B3: hu.18B9.3i-V2 (antibody, human IgG1, kappa, V domains shown)
VH: EVQLVESGGGLVQPGGSLRLSCAASGFSFNSGYMSWVRQAPGKGLEWIASIYAGSSGKTYYADWAKGRFTISKTSSKTTVYLQMNSLRAEDTAVYYCARDSGGTYYTDYLYLWGQGTLVTVSS
VL: DIQMTQSPSSLSASVGDRVTITCRASEGISSYLSWYQQKPGKAPKLLIYKASTLTSGVPSRFSGSGSGTDFTLTISSLQPEDFATYYCQSAYGSSGSSGYGAAFGGGTKVEIKR

binding [7]: binds
binding [8]: binds
B5: hu.1D15E11-V4 (antibody, human IgG1, kappa, V domains shown)
VH: EVQLVQSGAEVKKPGASVKVSCKASGYTFTSYVMHWVRQAPGQRLEWMGYIDPYNEGTKYNEKFKGRVTITRDTSASTAYMELSSLRSEDTAVYYCSRGGVARRSFDYWGQGTLVTVSS
VL: DIQMTQSPSSLSASVGDRVTITCLASQTIGTWLTWYQQKPGKAPKLLIYAATTLAEGVPSRFSGSGSGTDFTLTISSLQPEDFATYYCQQLYSTPWTFGGGTKVEIKR
notes: Humanised variant of 1D15E11; also called hu.1D15E11 variants

binding [7]: binds
binding [8]: binds
B6: hu.1D15E11-V2 (antibody, human IgG1, kappa, V domains shown)
VH: EVQLVQSGAEVKKPGASVKVSCKASGYTFTSYVMHWVRQAPGQRLEWMGYIDPYNEGTKYNEKFKGRVTITSDTSASTAYMELSSLRSEDTAVYYCSRGGMARRSFDYWGQGTLVTVSS
VL: DIQMTQSPSSLSASVGDRVTITCLASQTIGTWLTWYQQKPGKAPKLLIYAATTLAEGVPSRFSGSGSGTDFTLTISSLQPEDFATYYCQQLYSTPWTFGGGTKVEIKR
notes: as for B5

binding [7]: binds
binding [8]: binds
B7: hu.1D15E11-V3 (antibody, human IgG1, kappa, V domains shown)
VH: EVQLVQSGAEVKKPGASVKVSCKASGYTFTSYVMHWVRQAPGQRLEWMGYIDPYNEGTKYNEKFKGRVTITRDTSASTAYMELSSLRSEDTAVYYCSRGGIARRSFDYWGQGTLVTVSS
VL: DIQMTQSPSSLSASVGDRVTITCLASQTIGTWLTWYQQKPGKAPKLLIYAATTLAEGVPSRFSGSGSGTDFTLTISSLQPEDFATYYCQQLYSTPWTFGGGTKVEIKR
notes: as for B5

Second part, the binder before the results:

B1: hu.18B9.3i-V1 (antibody, human IgG1, kappa, V domains shown)
VH: EVQLVESGGGLVQPGGSLRLSCAASGFSFNSGYMSWVRQAPGKGLEWIASIYAGSSGKTYYADWAKGRFTISKTSSKTTVYLQMNSLRAEDTAVYYCARDSGGTYYTDYLYAWGQGTLVTVSS
VL: DIQMTQSPSSLSASVGDRVTITCRASEGISSYLSWYQQKPGKAPKLLIYKASTLTSGVPSRFSGSGSGTDFTLTISSLQPEDFATYYCQSTYGSSGSSGYGAAFGGGTKVEIKR
binding [1]: binds
binding [2]: binds

B2: hu.18B9.3i-V3 (antibody, human IgG1, kappa, V domains shown)
VH: EVQLVESGGGLVQPGGSLRLSCAASGFSFNSGYMSWVRQAPGKGLEWIASIYAGSSGKTYYADWAKGRFTISKTSSKTTVYLQMNSLRAEDTAVYYCARDSGGTYYTDYLYLWGQGTLVTVSS
VL: DIQMTQSPSSLSASVGDRVTITCRASEGISSYLSWYQQKPGKAPKLLIYKASTLTSGVPSRFSGSGSGTDFTLTISSLQPEDFATYYCQSTYGSSGSSGYAAAFGGGTKVEIKR
binding [3]: binds
binding [4]: binds

B4: hu.1D15E11-V1 (antibody, human IgG1, kappa, V domains shown)
VH: EVQLVQSGAEVKKPGASVKVSCKASGYTFTSYVMHWVRQAPGQRLEWMGYIDPYNEGTKYNEKFKGRVTITRDTSASTAYMELSSLRSEDTAVYYCSRGGMARRSFDYWGQGTLVTVSS
VL: DIQMTQSPSSLSASVGDRVTITCLASQTIGTWLTWYQQKPGKAPKLLIYAATTLAEGVPSRFSGSGSGTDFTLTISSLQPEDFATYYCQQLYSTPWTFGGGTKVEIKR
notes: Humanised variant of 1D15E11; also called hu.1D15E11-Vi; hu.1D15E11 variants
binding [5]: binds
binding [6]: binds

From patent US20240174750A1 (VIRTUOSO BINCO, published 2024)
